These results are taken from paper PMC12327844.

Results are given in words; binding and its absence hold for the method and conditions named. In cells and extracts the contact can be indirect. Here binding means that the protein was enriched with, or labelled near, the bait; the list need not be complete. Where a sequence is shown, tags or fusion partners need not be part of it.

This assay addresses T1, GST-tagged BsFlhG (Bacillus subtilis NCIB 3610) (UniProt P40742).
T1 sequence: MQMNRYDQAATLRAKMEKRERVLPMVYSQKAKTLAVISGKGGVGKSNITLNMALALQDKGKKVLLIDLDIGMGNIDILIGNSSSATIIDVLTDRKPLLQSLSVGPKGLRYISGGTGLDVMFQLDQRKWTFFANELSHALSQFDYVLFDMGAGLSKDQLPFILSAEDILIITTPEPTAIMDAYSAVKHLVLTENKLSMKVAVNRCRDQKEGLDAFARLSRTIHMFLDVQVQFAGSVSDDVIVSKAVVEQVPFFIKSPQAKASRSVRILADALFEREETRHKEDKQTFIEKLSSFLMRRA
In words: affinity purification with mass spectrometry; purified GST-FlhG incubated with lysate of B. subtilis 3610 in the logarithmic growth phase; GST pulldown, Coomassie-stained SDS-PAGE and mass spectrometry; control: lysate without GST-tagged protein; only the target purified.

B1: FliY (B. subtilis, from cell lysate) (protein, UniProt P24073 1-378)
chain: MENNRLSQDEIDALLNGTGSTLDEPEIPEVDDLSEMERDAIGEIGNISFGSSATALSTLLNQKVDITTPSVTVIPRSKISDAFPEPYVAIEVNYTEGFSGSNLLVVEQSDAAIIADLMIGGDGKGADPSLGEIHLSAVQEAMNQMMGSAATSMSTVFSKKIDISPPRVELLDVTEEKGTDRIPDDEMLVKVSFNLKVGELIDSSIMQLYPLTFAKDLISSLMNSESAEEEETVQPEVTYEQPKEPVTPEPRIEPKQQQQPPKRQGTAKKAAPVQVSPVEFSAFDPNEAVQAPIHNLDMLLDIPLSITVELGRTKRSVKEILELSAGSIIELDKLAGEPVDILVNQRIVAKGEVVVIEENFGVRVTDILSQAERINNLK
As for B1, the binding result is on record as “binds”.

B2: GpsB (B. subtilis, from cell lysate) (protein, UniProt P0CI74 1-98)
chain: MLADKVKLSAKEILEKEFKTGVRGYKQEDVDKFLDMIIKDYETFHQEIEELQQENLQLKKQLEEASKKQPVQSNTTNFDILKRLSNLEKHVFGSKLYD
On to B2, for which the binding entry is given as “binds”.
